According to US20030207791A1, “Materials and methods relating to the treatment of leukaemias” (priority 2000, published 2003):
Results are given in words; binding and its absence hold for the method and conditions named. For some assays here: In cells and extracts the contact can be indirect. Some binding calls cover weakened binding; strength is not graded here. For some assays here: Sequences can lack the tags named with a protein.

Amino acid sequences for entries named in this document (tags omitted). A change or cut given only in a name is not applied to a line headed by its entry. Chains listed by the source or under a name are the forms on record and can include a tag or linker.
PML (P29590, form named): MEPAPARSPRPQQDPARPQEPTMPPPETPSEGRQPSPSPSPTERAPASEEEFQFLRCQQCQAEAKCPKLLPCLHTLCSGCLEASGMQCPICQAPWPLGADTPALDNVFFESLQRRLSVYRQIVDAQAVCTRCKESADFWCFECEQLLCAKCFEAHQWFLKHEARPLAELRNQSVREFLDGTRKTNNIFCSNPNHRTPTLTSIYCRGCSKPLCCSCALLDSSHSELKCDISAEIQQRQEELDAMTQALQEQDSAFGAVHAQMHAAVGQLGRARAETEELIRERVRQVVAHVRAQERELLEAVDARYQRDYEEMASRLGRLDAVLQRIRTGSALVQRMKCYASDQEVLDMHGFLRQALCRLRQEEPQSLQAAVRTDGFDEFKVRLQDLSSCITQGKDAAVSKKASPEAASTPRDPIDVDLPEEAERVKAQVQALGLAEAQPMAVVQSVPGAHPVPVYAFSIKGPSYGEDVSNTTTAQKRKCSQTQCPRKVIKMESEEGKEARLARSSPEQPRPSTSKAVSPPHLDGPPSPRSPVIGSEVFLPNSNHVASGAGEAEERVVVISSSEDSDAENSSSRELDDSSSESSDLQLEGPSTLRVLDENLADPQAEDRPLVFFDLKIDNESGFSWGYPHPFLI

What was measured:
[1] = biological target: PML-RAR (UniProt P29590); assay: in vivo cross-linking with DTBP, gel filtration, anti-PML immunoprecipitation
[2] = biological target: PML-RAR (UniProt P29590); assay: gel filtration of in vitro translated and bacterially expressed PML-RAR
[3] = biological target: T1, GST-NCoR (1782-2453) (UniProt Q60974); assay: GST pull-down, in vitro translated 35S-labelled protein on GST-NCoR agarose beads
T1 sequence (looked up): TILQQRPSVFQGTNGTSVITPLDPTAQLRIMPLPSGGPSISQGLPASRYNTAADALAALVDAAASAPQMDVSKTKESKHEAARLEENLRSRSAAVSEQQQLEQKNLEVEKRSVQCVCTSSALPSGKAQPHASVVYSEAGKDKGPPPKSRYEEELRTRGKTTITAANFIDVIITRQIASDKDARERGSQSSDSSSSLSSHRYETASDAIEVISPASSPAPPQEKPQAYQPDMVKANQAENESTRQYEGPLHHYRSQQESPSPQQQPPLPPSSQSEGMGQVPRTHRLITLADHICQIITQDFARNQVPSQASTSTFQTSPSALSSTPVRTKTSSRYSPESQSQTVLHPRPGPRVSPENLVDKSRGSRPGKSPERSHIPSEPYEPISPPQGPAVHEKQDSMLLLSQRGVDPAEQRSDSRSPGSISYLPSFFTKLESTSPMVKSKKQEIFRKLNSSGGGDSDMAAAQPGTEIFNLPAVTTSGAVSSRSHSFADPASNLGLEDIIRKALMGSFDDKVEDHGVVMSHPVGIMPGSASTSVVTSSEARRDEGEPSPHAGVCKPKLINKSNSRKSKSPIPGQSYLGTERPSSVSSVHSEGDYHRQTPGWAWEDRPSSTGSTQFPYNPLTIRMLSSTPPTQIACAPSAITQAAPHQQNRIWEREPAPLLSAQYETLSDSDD

[4] = biological target: PML-RAR (UniProt P29590); assay: molecular mass from Stokes radius (gel filtration) and sedimentation coefficient (sucrose gradient)
[5] = biological target: PML-RAR (UniProt P29590); assay: resistance to 2M KCl, 1% Triton or NP-40, 50 mM DTT (unpublished data)
[6] = biological target: T1, GST-NCoR (1782-2453); assay: GST pull-down with 150 ng to 10 µg GST-NCoR on agarose beads
[7] = biological target: PML-RAR (UniProt P29590); assay: gel filtration; also PML-RAR purified from nuclear extracts by DNA affinity
[8] = biological target: T1, GST-NCoR (1782-2453); assay: GST pull-down, in vitro translated 35S-labelled protein, increasing GST-NCoR
[9] = biological target: PML-RAR (UniProt P29590); assay: co-fractionation in gel filtration and anti-RAR immunoprecipitation, anti-PML Western blot
[10] = biological target: PML-RAR (UniProt P29590); assay: gel filtration and co-immunoprecipitation with anti-RAR antibodies
[11] = biological target: PML (UniProt P29590); assay: gel filtration of nuclear extracts and of bacterially expressed PML

Measured: binding

PML-RAR (from UniProt P29590 1-552; P10276 61-462)
not listed: [8] | [9] | [10] | [11]
binds: all other assays above

p53-RAR (from UniProt P04637 325-356; P10276 1-462)
binds: [8]

PML (from UniProt P29590 1-633)
binds: [9] | [10] | [11]
